Experimental data: paper PMC10766984, “Josephin domain containing 2 (JOSD2) promotes lung cancer by inhibiting LKB1 (Liver kinase B1) activity” (Signal Transduction and Targeted Therapy, 2024)
Results are given in words; binding and its absence hold for the method and conditions named. Binding seen in cells or lysates may run through a third protein. Some entries that bind do so weakly or less than the wild type. For part of these data: Sequences can lack the tags named with a protein. Blank lines part the entries; values can stand above or below the binder they belong to.

How the values were obtained:
[1] = biological target: T1, LKB1-Flag (Liver kinase B1, Flag-tagged, wild type) (UniProt Q15831); test: co-IP; IPs by Flag beads from 293FT cells transfected with vector or JOSD2-HA along with vector or LKB1-Flag for 48 h, immunoblot
T1 sequence: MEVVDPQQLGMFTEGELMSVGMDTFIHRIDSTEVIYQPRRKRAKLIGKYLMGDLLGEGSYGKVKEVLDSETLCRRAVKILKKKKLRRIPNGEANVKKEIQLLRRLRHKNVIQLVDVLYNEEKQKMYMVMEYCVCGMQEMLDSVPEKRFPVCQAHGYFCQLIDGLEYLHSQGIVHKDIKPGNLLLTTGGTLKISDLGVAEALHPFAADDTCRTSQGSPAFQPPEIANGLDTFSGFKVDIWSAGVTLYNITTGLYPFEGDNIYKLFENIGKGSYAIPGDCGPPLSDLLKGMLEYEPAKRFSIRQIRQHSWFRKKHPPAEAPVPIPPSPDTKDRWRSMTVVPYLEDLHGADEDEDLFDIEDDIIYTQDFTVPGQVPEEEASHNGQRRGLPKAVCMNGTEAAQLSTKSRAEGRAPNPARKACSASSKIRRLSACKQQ

[2] = biological target: T1, LKB1-Flag (Liver kinase B1, Flag-tagged, wild type); test: co-IP; 293T cells transfected with LKB1-Flag and JOSD2-HA for 48 h, nucleoplasmic separation, IPs from cytoplasmic and nuclear fractions
[3] = biological target: T2, endogenous LKB1 (NCI-H1299 cells) (human (endogenous in NCI-H1299)) (UniProt Q15831); test: co-IP; endogenous proteins; IPs by control IgG or anti-LKB1 antibody from NCI-H1299 cells, immunoblot
T2 sequence: T1 sequence

binding [1]: binds
binding [2]: binds
B1: JOSD2-HA (Josephin Domain-containing protein 2, HA-tagged) (enzyme, UniProt Q8TAC2 1-188)
chain: MSQAPGAQPSPPTVYHERQRLELCAVHALNNVLQQQLFSQEAADEICKRLAPDSRLNPHRSLLGTGNYDVNVIMAALQGLGLAAVWWDRRRPLSQLALPQVLGLILNLPSPVSLGLLSLPLRRRHWVALRQVDGVYYNLDSKLRAPEALGDEDGVRAFLAAALAQGLCEVLLVVTKEVEEKGSWLRTD

binding [3]: binds
B2: endogenous JOSD2 (NCI-H1299 cells) (enzyme, UniProt Q8TAC2 1-188)
chain: B1 chain
